Paper PMC5964235, “rbFOX1/MBNL1 competition for CCUG RNA repeats binding contributes to myotonic dystrophy type 1/type 2 differences”
Construct, isoform or probe ends are uncertain for at least one entry. At least one result comes from cells or an extract, where the contact may be indirect. For some of these results: Negatives hold for the conditions tested. Tags and fusion partners may be left off the protein sequences shown.

Experiments:
[1] = molecular target: T1, rbFox1 (mouse brain) (Mus musculus (C57/BL6)) (UniProt Q9JJ43); experiment: pull-down, western blot; conditions: 300 mM NaCl, 2 mM MgCl2; protein in an extract; label: biotin
T1 sequence (looked up, limits assumed): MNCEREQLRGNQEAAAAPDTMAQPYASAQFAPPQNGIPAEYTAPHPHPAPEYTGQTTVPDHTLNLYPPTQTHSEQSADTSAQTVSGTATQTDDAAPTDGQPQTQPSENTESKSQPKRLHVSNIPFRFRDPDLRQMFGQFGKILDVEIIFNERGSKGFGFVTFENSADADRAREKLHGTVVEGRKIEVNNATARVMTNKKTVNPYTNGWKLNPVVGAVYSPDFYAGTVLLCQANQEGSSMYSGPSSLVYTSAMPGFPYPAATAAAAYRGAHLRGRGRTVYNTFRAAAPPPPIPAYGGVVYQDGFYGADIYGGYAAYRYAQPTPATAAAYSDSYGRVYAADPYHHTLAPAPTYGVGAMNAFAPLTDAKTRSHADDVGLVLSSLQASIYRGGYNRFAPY

[2] = molecular target: T2, Mbnl1 (mouse brain) (Mus musculus (C57/BL6)) (UniProt Q9JKP5); experiment: pull-down, western blot; conditions: 300 mM NaCl, 2 mM MgCl2; protein in an extract; label: biotin
T2 sequence (looked up, limits assumed): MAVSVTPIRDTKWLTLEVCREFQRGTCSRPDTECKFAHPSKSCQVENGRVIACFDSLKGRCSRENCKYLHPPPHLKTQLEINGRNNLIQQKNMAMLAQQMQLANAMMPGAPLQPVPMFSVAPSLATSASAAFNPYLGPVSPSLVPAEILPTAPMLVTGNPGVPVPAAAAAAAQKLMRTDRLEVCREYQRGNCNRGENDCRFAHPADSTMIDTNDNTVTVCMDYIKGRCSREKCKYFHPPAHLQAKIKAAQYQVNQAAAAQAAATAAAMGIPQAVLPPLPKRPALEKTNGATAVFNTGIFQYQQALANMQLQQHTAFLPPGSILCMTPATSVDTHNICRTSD

CUGCUGCUGCUGCUGCUGCUGCUGCUGCUGCUGCUGCUGCUGCUGCUGCUGCUGCUGCUGCUGCUGCUGCUGCUGCUGCUGCUGCUGCUG [biotin-(CUG)30]
binding result [1]: no binding | binding result [2]: binds

CCUGCCUGCCUGCCUGCCUGCCUGCCUGCCUGCCUGCCUGCCUGCCUGCCUGCCUGCCUGCCUGCCUGCCUGCCUGCCUGCCUGCCUGCCUGCCUGCCUGCCUGCCUGCCUGCCUGCCUG [biotin-(CCUG)30]
binding result [1]: binds | binding result [2]: binds
